# Values from PubChem BioAssay AID1259254 (NCATS, 2017).
# Purpose: 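Finding genes that stop cells copying their DNA twice in one cycle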 (primary screen)
# System: human HCT116 colorectal cancer cells
# Reagent: single siRNA against human genes
# Timing: 3 days
# Measured: 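Nuclei stained with Hoechst and imaged; cell-cycle phase assigned by DNA content; G2 share scaled per plate, non-targeting siRNA 0%, GMNN siRNA 100%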
# Direction: G2 robust z-score: higher = more G2 cells, more excess DNA replication
# Rule for the call: 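Active siRNAs have a G2 robust z of 5 or more median absolute deviations over the median, which in these data means about 38% or higher of GMNN control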
# Shown is one part, drawn at random, of about 59,000 reagents tested. About 1,550 of them (2.6%) count as active. 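G2 share is only a proxy for re-replication; each gene was hit by three separate siRNAs, and active genes were retested.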 Unmarked entries are inactive. Reagents against one gene are numbered here. Not all columns of the deposit are shown. The record does not give: the amount of reagent.
Gene,siRNA no.,G2 robust z-score
GABRR3,1,-0.442
GABRR3,2,1.67
GABRR3,3,1.11
KIF18A,1,0.21
KIF18A,2,-0.274
KIF18A,3,-0.391
TXNL4B,1,0.202
TXNL4B,2,-1.22
TXNL4B,3,3.44
LINC02898,1,0.807
LINC02898,2,0.0306
LINC02898,3,4.14
TOR2A,1,3.3
TOR2A,2,-0.162
TOR2A,3,-0.674
ADRA2C,1,1.42
ADRA2C,2,-1.06
ADRA2C,3,0.855
MPP4,1,-1.49
MPP4,2,-0.641
MPP4,3,-1.38
ZNF155,1,1.66
ZNF155,2,-0.211
ZNF155,3,-0.994
CBLL2,1,-1.54
CBLL2,2,3.63
CBLL2,3,0.69
FCRL6,1,1.08
FCRL6,2,-0.686
FCRL6,3,0.282
PPM1K,1,-0.235
PPM1K,2,-0.431
PPM1K,3,-0.789
SEMA4B,1,-1.65
SEMA4B,2,-1.08
SEMA4B,3,1.72
WDR13,1,-0.345
WDR13,2,-0.755
WDR13,3,0.428
MAPK7,1,-0.94
MAPK7,2,-0.0859
MAPK7,3,-0.637
ZNF93,1,-1.11
ZNF93,2,-0.966
ZNF93,3,3.37
TRHR,1,-1.25
TRHR,2,0.0867
TRHR,3,-0.109
STS,1,-0.531
STS,2,2.42
STS,3,0.487
ADORA2A,1,0.0486
ADORA2A,2,1.16
ADORA2A,3,0.667
NDUFB2,1,-0.257
NDUFB2,2,0.687
NDUFB2,3,0.777
ZWINT,1,1.8
ZWINT,2,-0.857
ZWINT,3,0.922
DEFB130A,1,1.88
DEFB130A,2,0.0987
DEFB130A,3,0.389
ASNS,1,0.135
ASNS,2,-0.692
ASNS,3,-0.59
ATP1A4,1,-0.3
ATP1A4,2,0.0397
ATP1A4,3,0.157
COX7B2,1,1.65
COX7B2,2,-0.1
COX7B2,3,0.271
AOC2,1,4.92
AOC2,2,-0.934
AOC2,3,-1.4
CIST1,1,0.556
CIST1,2,0.0567
CIST1,3,2.04
PRLR,1,-0.228
PRLR,2,-0.463
PRLR,3,0.887
TUBA1C,1,5.03 (active)
TUBA1C,2,-0.332
TUBA1C,3,0.717
SYT14,1,6.54 (active)
SYT14,2,1.03
SYT14,3,2.63
